This continues a long series; more values of the same kind are listed elsewhere.
How the values were obtained:
Homo sapiens [1] = species on record: Homo sapiens; assay: Selectivity for p38alpha MAP kinase (unknown origin) over TSF1 (unknown origin)
Homo sapiens [2] = species on record: Homo sapiens; assay: Selectivity for p38alpha MAP kinase (unknown origin) over CDK7/CycH/MAT1 (unknown origin)
Homo sapiens [3] = species on record: Homo sapiens; assay: Selectivity for p38alpha MAP kinase (unknown origin) over TYRO3 (unknown origin)
Homo sapiens [4] = species on record: Homo sapiens; assay: Selectivity for p38alpha MAP kinase (unknown origin) over CK1-gamma2 (unknown origin)
Homo sapiens [5] = species on record: Homo sapiens; assay: Selectivity for p38alpha MAP kinase (unknown origin) over GSK3-alpha (unknown origin)
Homo sapiens [6] = species on record: Homo sapiens; assay: Selectivity for p38alpha MAP kinase (unknown origin) over CAMK2B (unknown origin)
Homo sapiens [7] = species on record: Homo sapiens; assay: Selectivity for p38alpha MAP kinase (unknown origin) over CAMK4 (unknown origin)
Homo sapiens [8] = species on record: Homo sapiens; assay: Selectivity for p38alpha MAP kinase (unknown origin) over JNK2 (unknown origin)
Homo sapiens [9] = species on record: Homo sapiens; assay: Selectivity for p38alpha MAP kinase (unknown origin) over PKC-alpha (unknown origin)
Homo sapiens [10] = species on record: Homo sapiens; assay: Selectivity for p38alpha MAP kinase (unknown origin) over PAK6 (unknown origin)
Homo sapiens [11] = species on record: Homo sapiens; assay: Selectivity for p38alpha MAP kinase (unknown origin) over PKC-delta (unknown origin)
Homo sapiens [12] = species on record: Homo sapiens; assay: Selectivity for p38alpha MAP kinase (unknown origin) over AMPK alpha1 (unknown origin)
Homo sapiens [13] = species on record: Homo sapiens; assay: Selectivity for p38alpha MAP kinase (unknown origin) over B-RAF V600E (unknown origin)
Homo sapiens [14] = species on record: Homo sapiens; assay: Selectivity for p38alpha MAP kinase (unknown origin) over SYK (unknown origin)
Homo sapiens [15] = species on record: Homo sapiens; assay: Selectivity for p38alpha MAP kinase (unknown origin) over LYN (unknown origin)
Homo sapiens [16] = species on record: Homo sapiens; assay: Selectivity for p38alpha MAP kinase (unknown origin) over STK33 (unknown origin)
Homo sapiens [17] = species on record: Homo sapiens; assay: Selectivity for p38alpha MAP kinase (unknown origin) over EPHA5 (unknown origin)
Homo sapiens [18] = species on record: Homo sapiens; assay: Selectivity for p38alpha MAP kinase (unknown origin) over MARK2 (unknown origin)
Homo sapiens [19] = species on record: Homo sapiens; assay: Selectivity for p38alpha MAP kinase (unknown origin) over wild-type B-RAF (unknown origin)
Homo sapiens [20] = species on record: Homo sapiens; assay: Selectivity for p38alpha MAP kinase (unknown origin) over CDK1/CycE (unknown origin)
Homo sapiens [21] = species on record: Homo sapiens; assay: Selectivity for p38alpha MAP kinase (unknown origin) over TXK (unknown origin)
Homo sapiens [22] = species on record: Homo sapiens; assay: Selectivity for p38alpha MAP kinase (unknown origin) over S6K (unknown origin)
Homo sapiens [23] = species on record: Homo sapiens; assay: Selectivity for p38alpha MAP kinase (unknown origin) over JNK1 (unknown origin)
Homo sapiens [24] = species on record: Homo sapiens; assay: Selectivity for p38alpha MAP kinase (unknown origin) over ERBB2 (unknown origin)
Homo sapiens [25] = species on record: Homo sapiens; assay: Selectivity for p38alpha MAP kinase (unknown origin) over RET Y791F mutant (unknown origin)
Homo sapiens [26] = species on record: Homo sapiens; assay: Selectivity for p38alpha MAP kinase (unknown origin) over JAK2 (unknown origin)
Homo sapiens [27] = species on record: Homo sapiens; assay: Selectivity for p38alpha MAP kinase (unknown origin) over LRRK2 G2019S mutant (unknown origin)
Homo sapiens [28] = species on record: Homo sapiens; assay: Selectivity for p38alpha MAP kinase (unknown origin) over GRK2 (unknown origin)
Homo sapiens [29] = species on record: Homo sapiens; assay: Selectivity for p38alpha MAP kinase (unknown origin) over wild type KIT (unknown origin)
Homo sapiens [30] = species on record: Homo sapiens; assay: Selectivity for p38alpha MAP kinase (unknown origin) over Aurora-C (unknown origin)
Homo sapiens [31] = species on record: Homo sapiens; assay: Selectivity for p38alpha MAP kinase (unknown origin) over PKC-eta (unknown origin)
Homo sapiens [32] = species on record: Homo sapiens; assay: Selectivity for p38alpha MAP kinase (unknown origin) over PAK4 (unknown origin)
Homo sapiens [33] = species on record: Homo sapiens; assay: Selectivity for p38alpha MAP kinase (unknown origin) over CAMK2A (unknown origin)
Homo sapiens [34] = species on record: Homo sapiens; assay: Selectivity for p38alpha MAP kinase (unknown origin) over CDK8/CycC (unknown origin)
Homo sapiens [35] = species on record: Homo sapiens; assay: Selectivity for p38alpha MAP kinase (unknown origin) over FGFR3 K650E mutant (unknown origin)
Homo sapiens [36] = species on record: Homo sapiens; assay: Selectivity for p38alpha MAP kinase (unknown origin) over NEK3 (unknown origin)
Homo sapiens [37] = species on record: Homo sapiens; assay: Selectivity for p38alpha MAP kinase (unknown origin) over p38-beta (unknown origin)
Homo sapiens [38] = species on record: Homo sapiens; assay: Selectivity for p38alpha MAP kinase (unknown origin) over ABL2 (unknown origin)
Homo sapiens [39] = species on record: Homo sapiens; assay: Selectivity for p38alpha MAP kinase (unknown origin) over CDK6/CycD1 (unknown origin)
Homo sapiens [40] = species on record: Homo sapiens; assay: Selectivity for p38alpha MAP kinase (unknown origin) over EIF2AK2 (unknown origin)

Measured: Selectivity ratio

Cc1cc(F)c(NC(=O)c2ccsc2)cc1Nc1ccc2c(c1)OCc1ccc(OC[C@H](O)CO)cc1C2=O
> 1000: all assays above

Reference: ChEMBL document CHEMBL3085714 (J Med Chem, 2013)
